Laboratory results published in publication PMC6277802.
No constants are given. Whether binding was seen depends on the method and setting. Binding seen in cells or lysates may run through a third protein. Some binding calls cover weakened binding; strength is not graded here.

Chains of the proteins cited; added tags and fusions are not shown. Residues count along the entry.
UniProt Q9QUK6, residues 26-835: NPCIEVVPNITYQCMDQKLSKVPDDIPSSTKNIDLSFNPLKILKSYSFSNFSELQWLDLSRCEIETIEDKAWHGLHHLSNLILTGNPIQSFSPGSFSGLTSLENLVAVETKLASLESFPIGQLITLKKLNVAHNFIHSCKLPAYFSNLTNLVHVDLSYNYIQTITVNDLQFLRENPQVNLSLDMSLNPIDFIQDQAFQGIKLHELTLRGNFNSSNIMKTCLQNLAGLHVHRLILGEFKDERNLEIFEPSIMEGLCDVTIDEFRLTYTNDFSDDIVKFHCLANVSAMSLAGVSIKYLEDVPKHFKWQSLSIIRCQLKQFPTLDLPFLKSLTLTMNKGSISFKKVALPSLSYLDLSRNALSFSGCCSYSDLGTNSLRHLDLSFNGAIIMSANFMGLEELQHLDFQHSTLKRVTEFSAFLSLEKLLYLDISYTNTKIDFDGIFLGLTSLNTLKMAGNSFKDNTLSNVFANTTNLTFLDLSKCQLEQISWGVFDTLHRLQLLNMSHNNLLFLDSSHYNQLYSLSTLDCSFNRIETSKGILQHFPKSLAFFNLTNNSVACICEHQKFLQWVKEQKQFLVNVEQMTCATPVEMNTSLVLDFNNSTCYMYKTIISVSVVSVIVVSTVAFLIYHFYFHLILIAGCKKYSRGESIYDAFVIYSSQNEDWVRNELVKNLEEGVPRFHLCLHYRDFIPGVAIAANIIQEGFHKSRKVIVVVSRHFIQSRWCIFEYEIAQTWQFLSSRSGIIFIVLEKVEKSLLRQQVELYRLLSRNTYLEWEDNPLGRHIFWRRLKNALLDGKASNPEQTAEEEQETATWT
UniProt P63158: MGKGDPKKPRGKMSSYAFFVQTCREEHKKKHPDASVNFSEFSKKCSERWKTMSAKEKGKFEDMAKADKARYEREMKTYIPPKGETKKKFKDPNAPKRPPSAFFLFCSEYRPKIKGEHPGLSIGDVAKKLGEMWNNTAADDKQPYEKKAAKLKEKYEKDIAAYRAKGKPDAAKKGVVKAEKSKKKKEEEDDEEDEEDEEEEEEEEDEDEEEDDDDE

Target: Toll-like receptor 4 (TLR4) (mouse (endogenous in primary chondrocytes)) (UniProt Q9QUK6)
Test: co-IP; lysates of primary mouse chondrocytes treated with IL-1β with or without Nec-1; pre-cleared with IgG and Protein A+G agarose, primary antibody overnight at 4°C, Protein A+G agarose 3 h, washed five times with lysis buffer, western blot

- binding: binds
Substance: high-mobility group box 1 (HMGB1) (from UniProt P63158 1-215)
